From paper PMC7862700
The list shows a part of the results, in another mix than the full data. For part of these data: At the low end of the ranking the order means little. The list shows a part of the results. For part of these data: The exact form of the protein is not confirmed.

Experiments:
[1] = target: T1, ERG (UniProt P11308); assay: DAPPL (digital affinity profiling via proximity ligation, sequencing); conditions: 10 mM Tris-HCl pH 7.5, 50 mM NaCl, 1 mM DTT, 4% glycerol, room temperature, 30 min; GST-TFs on glutathione beads, 16-mer random dsDNA library, 0.1% …; high values mean tight binding; double strand, one strand shown; scale: fold enrichment (6-mer frequency, TF over GST control)
T1 sequence: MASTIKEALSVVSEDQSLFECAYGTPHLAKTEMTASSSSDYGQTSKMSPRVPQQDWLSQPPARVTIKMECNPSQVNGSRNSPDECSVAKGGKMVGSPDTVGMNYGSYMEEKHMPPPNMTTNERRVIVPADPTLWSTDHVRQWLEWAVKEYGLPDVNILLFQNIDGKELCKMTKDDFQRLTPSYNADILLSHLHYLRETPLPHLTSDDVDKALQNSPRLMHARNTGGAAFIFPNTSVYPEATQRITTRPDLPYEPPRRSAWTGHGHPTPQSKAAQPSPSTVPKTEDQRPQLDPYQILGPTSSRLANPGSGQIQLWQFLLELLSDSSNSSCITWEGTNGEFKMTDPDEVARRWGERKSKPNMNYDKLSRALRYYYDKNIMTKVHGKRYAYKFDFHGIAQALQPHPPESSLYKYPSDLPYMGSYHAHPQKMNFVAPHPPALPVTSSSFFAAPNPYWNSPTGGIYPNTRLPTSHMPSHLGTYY

[2] = target: T2, ETV4 (UniProt P43268); assay: as above; conditions: 10 mM Tris-HCl pH 7.5, 50 mM NaCl, 1 mM DTT, 4% glycerol, room temperature, 30 min; GST-TFs on glutathione beads, 16-mer random dsDNA library, 0.1% …; high values mean tight binding; double strand, one strand shown; scale: fold enrichment (6-mer frequency, TF over GST control)
T2 sequence: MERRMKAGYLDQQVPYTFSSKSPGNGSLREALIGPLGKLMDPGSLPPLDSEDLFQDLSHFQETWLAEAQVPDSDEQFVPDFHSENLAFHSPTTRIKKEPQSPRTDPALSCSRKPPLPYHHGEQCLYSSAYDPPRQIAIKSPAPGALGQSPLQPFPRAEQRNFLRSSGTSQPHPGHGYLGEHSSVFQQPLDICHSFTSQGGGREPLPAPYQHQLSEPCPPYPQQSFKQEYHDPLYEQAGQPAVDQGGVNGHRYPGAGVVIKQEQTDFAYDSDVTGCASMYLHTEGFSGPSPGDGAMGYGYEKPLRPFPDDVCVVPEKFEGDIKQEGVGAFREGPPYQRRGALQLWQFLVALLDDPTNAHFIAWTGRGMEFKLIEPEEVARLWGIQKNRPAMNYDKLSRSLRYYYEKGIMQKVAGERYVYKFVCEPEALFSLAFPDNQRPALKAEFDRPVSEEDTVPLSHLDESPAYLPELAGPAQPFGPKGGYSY

Sequence | binding signal [1] | binding signal [2]
TAGGTC | 1.03 | 0.956
CATAAT | 1.1 | 0.963
TAGATG |  | 1.25
CCTTCT | 1.54 | 1.68
CGAATT | 1.23 | 1.23
TATTTG | 1.47 | 1.4
ATGGGG | 1.07 | 0.949
GTTTGC | 0.971 | 1.19
TGAATG | 1.21 | 1.14
CTGGCA |  | 1.24
AGCTAT |  | 1.16
TGGGCT | 1.34 | 1.44
CTAGAT | 1.12 | 1.15
TTGTTA | 1.33 | 1.31
ACCATT |  | 1.14
TCCCTG | 1.28 | 1.29
TTGAAA | 1.09 | 1.17
GCTTGG | 1.09 | 1.13
TAATCG | 0.975 | 1.08
AAACTG | 1.01 | 1.08

Reprinted at random: 2 records from the list, in no set order.
Sequence | binding signal [1] | binding signal [2]
GTTTGC | 0.971 | 1.19
CTAGAT | 1.12 | 1.15
